No constants are given. Whether binding was seen depends on the method and setting. In cells and extracts the contact can be indirect. Binding calls can cover weak binding; strength is not graded here.
Target: T1, Tom70 (rat (endogenous in primary PVECs)) (UniProt Q75Q39)
T1 sequence: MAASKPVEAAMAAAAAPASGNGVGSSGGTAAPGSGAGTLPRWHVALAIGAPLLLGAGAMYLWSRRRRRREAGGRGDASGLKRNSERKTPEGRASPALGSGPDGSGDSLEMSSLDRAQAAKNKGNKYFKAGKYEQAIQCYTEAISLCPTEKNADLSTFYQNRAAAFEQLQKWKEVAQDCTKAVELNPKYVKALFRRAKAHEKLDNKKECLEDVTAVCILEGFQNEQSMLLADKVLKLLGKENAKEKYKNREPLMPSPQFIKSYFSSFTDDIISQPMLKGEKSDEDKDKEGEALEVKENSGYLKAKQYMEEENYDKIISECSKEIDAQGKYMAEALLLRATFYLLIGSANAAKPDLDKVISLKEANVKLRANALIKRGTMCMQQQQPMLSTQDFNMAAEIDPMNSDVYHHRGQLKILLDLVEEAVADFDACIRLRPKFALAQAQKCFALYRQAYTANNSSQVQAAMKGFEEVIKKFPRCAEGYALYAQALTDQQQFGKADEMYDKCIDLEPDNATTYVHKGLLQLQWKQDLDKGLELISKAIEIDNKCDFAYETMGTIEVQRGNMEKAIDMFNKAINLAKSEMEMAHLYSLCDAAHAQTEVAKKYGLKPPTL
Test: co-IP; primary cultured PVECs; IP and IB; which protein was precipitated and which groups of cells were used is not given

The chains behind the UniProt entries cited, without tags or fusion partners. Where a name states a change or a piece, a line headed by the entry shows the natural chain unless it says otherwise.
UniProt Q91ZW1: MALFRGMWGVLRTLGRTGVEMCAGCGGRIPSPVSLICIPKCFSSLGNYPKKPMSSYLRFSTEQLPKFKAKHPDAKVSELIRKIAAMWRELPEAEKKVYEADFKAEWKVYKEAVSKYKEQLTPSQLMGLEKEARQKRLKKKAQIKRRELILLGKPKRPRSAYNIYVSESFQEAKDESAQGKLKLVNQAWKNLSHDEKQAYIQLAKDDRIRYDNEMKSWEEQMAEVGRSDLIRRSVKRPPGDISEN

binding: binds
Substance: mitochondrial transcription factor A (from UniProt Q91ZW1)

Source: article PMC10717060
